Results taken from the supplement of paper PMC8728848.
The list shows a part of the results.

Assays:
Experiment in all cases: glycan array binding signal (z-score within array); higher = stronger binding
Details in all cases: glycan notation: IUPAC condensed, linker removed
[1] = target: Fuc(a1-2)[GalNAc(a1-3)]Gal(b1-4)GlcNAc(b1-3)Gal(b1-4)GlcNAc
Procedure, shortened: (§1)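 Columns mapping to the same glycan were averaged after glycan names were converted to IUPAC-condensed notation. The data come from 3228 arrays in the Consortium for Functional Glycomics database, limited to those with an available protein sequence. Binding is reported as a within-array Z-score averaged across arrays of one protein sequence and across linkers.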

[2] = target: Fuc(a1-2)[GalNAc(a1-3)]Gal(b1-4)GlcNAc(b1-3)Gal(b1-4)GlcNAc(b1-3)Gal(b1-4)GlcNAc
Procedure, shortened: as §1

[3] = target: Fuc(a1-2)[GalNAc(a1-3)]Gal(b1-4)GlcNAc(b1-3)GalNAc
Procedure, shortened: as §1

[4] = target: Fuc(a1-2)[GalNAc(a1-3)]Gal(b1-4)GlcNAc(b1-3)[Fuc(a1-2)[GalNAc(a1-3)]Gal(b1-4)GlcNAc(b1-6)]GalNAc
Procedure, shortened: as §1

[5] = target: Fuc(a1-2)[GalNAc(a1-3)]Gal(b1-4)GlcNAc(b1-6)GalNAc
Procedure, shortened: as §1

[6] = target: Fuc(a1-2)[GalNAc(a1-3)]Gal(b1-4)[Fuc(a1-3)]GlcNAc
Procedure, shortened: as §1

[7] = target: Fuc(a1-2)[GalNAc(a1-3)]Gal(b1-4)[Fuc(a1-3)]GlcNAc(b1-3)GalNAc
Procedure, shortened: as §1

[8] = target: Fuc(a1-2)[GalNAc(a1-4)]Gal(b1-4)GlcNAc
Procedure, shortened: as §1

[9] = target: Fuc(a1-2)[GalNAc(b1-3)]Gal
Procedure, shortened: as §1

[10] = target: Fuc(a1-3)GlcNAc
Procedure, shortened: as §1

[11] = target: Fuc(a1-3)[Gal(b1-4)]Glc6S
Procedure, shortened: as §1

[12] = target: Fuc(a1-3)[Gal(b1-4)]GlcNAc
Procedure, shortened: as §1

[13] = target: Fuc(a1-3)[Gal(b1-4)]GlcNAc(b1-2)Man
Procedure, shortened: as §1

[14] = target: Fuc(a1-3)[Gal(b1-4)]GlcNAc(b1-2)Man(a1-3)[Fuc(a1-3)[Gal(b1-4)]GlcNAc(b1-2)Man(a1-6)]Man(b1-4)GlcNAc(b1-4)GlcNAc
Procedure, shortened: as §1

[15] = target: Fuc(a1-3)[Gal(b1-4)]GlcNAc(b1-2)Man(a1-3)[Fuc(a1-3)[Gal(b1-4)]GlcNAc(b1-2)Man(a1-6)]Man(b1-4)GlcNAc(b1-4)[Fuc(a1-6)]GlcNAc
Procedure, shortened: as §1

[16] = target: Fuc(a1-3)[Gal(b1-4)]GlcNAc(b1-3)Gal(b1-3)[Fuc(a1-4)]GlcNAc
Procedure, shortened: as §1

[17] = target: Fuc(a1-3)[Gal(b1-4)]GlcNAc(b1-3)Gal(b1-4)[Fuc(a1-3)]GlcNAc
Procedure, shortened: as §1

[18] = target: Fuc(a1-3)[Gal(b1-4)]GlcNAc(b1-3)Gal(b1-4)[Fuc(a1-3)]GlcNAc(b1-3)Gal(b1-4)[Fuc(a1-3)]GlcNAc
Procedure, shortened: as §1

[19] = target: Fuc(a1-3)[Gal(b1-4)]GlcNAc(b1-3)GalNAc
Procedure, shortened: as §1

[20] = target: Fuc(a1-3)[Gal(b1-4)]GlcNAc(b1-4)Gal(b1-4)[Fuc(a1-3)]GlcNAc
Procedure, shortened: as §1

[21] = target: Fuc(a1-3)[Gal(b1-4)]GlcNAc(b1-4)Gal(b1-4)[Fuc(a1-3)]GlcNAc(b1-4)Gal(b1-4)[Fuc(a1-3)]GlcNAc
Procedure, shortened: as §1

[22] = target: Fuc(a1-3)[Gal(b1-4)]GlcNAc(b1-6)GalNAc
Procedure, shortened: as §1

[23] = target: Fuc(a1-3)[Gal(b1-4)]GlcNAc(b1-6)[Gal(b1-3)GlcNAc(b1-3)]Gal(b1-4)Glc
Procedure, shortened: as §1

[24] = target: Fuc(a1-3)[Gal(b1-4)]GlcNAc(b1-6)[Neu5Ac(a2-3)Gal(b1-3)]GalNAc
Procedure, shortened: as §1

[25] = target: Fuc(a1-3)[Gal(b1-4)]GlcNAc6S
Procedure, shortened: as §1

[26] = target: Fuc(a1-3)[Gal3S(b1-4)]Glc
Procedure, shortened: as §1

B1: NK2 (Sus scrofa) (peptide)
chain: KILRGVCKKIMRTFLRRISKDILTGKK
With B1 the “glycan array binding signal (z-score)” value [1] was 0.41, the “glycan array binding signal (z-score)” value [2] was -0.003 and the “glycan array binding signal (z-score)” value [3] was -0.327. The “glycan array binding signal (z-score)” value [4] was 1.67, the “glycan array binding signal (z-score)” value [5] was -1.05 and the “glycan array binding signal (z-score)” value [6] was 0.738. The “glycan array binding signal (z-score)” value [7] was 0.413, the “glycan array binding signal (z-score)” value [8] was -1.07 and the “glycan array binding signal (z-score)” value [9] was -0.991. For the same binder, the “glycan array binding signal (z-score)” value [10] was -0.228, the “glycan array binding signal (z-score)” value [11] was 0.197 and the “glycan array binding signal (z-score)” value [12] was -0.662. The “glycan array binding signal (z-score)” value [13] was 0.181, the “glycan array binding signal (z-score)” value [14] was -0.56 and the “glycan array binding signal (z-score)” value [15] was 1.17. The “glycan array binding signal (z-score)” value [16] was -0.574, the “glycan array binding signal (z-score)” value [17] was -0.101 and the “glycan array binding signal (z-score)” value [18] was 0.876. For the same binder, the “glycan array binding signal (z-score)” value [19] was 0.755, the “glycan array binding signal (z-score)” value [20] was -0.45 and the “glycan array binding signal (z-score)” value [21] was -0.525. For the same binder, the “glycan array binding signal (z-score)” value [22] was -0.254, the “glycan array binding signal (z-score)” value [23] was 0.544 and the “glycan array binding signal (z-score)” value [24] was 0.714. For the same binder, the “glycan array binding signal (z-score)” value [25] was 0.501 and the “glycan array binding signal (z-score)” value [26] was 0.232.
